# Measured data: PubChem BioAssay AID1508588 (Peter MacCallum Cancer Centre, 2020)
# Screen: 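Which gene losses make BRAF-mutant melanoma cells more responsive to vemurafenib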 (primary screen)
# Cells: human WM266.4 melanoma cells (BRAF V600 mutant)
# Reagents: siRNA pool against human genes, 40 nM
# Duration: 96 h from transfection to read-out
# Conditions: vemurafenib 300 nM (about IC25), added 48 h after transfection, for 48 h; comparison arm got DMSO vehicle only
# Measured: 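Ratios to non-targeting siRNA for cell gain, counted as DAPI nuclei after minus before drug and averaged over two replicates, and for absorbance-read medium lactate per cell; both binned into fold-change classes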
# Direction: cell gain with vemurafenib: higher = more cell gain than with non-targeting siRNA; lactate per cell with vemurafenib: higher = more lactate made per cell
# Active means: 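Enhancement is called by pairing each knock-down's vehicle-arm and drug-arm fold-change classes for viability or glycolysis; which class combinations qualify is not given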
# Meaning of the calls: active = enhances vemurafenib effect; inactive = no enhancement seen
# Here is one part, drawn at random, of about 18,000 reagents. 790 of them (4.4%) were called active. 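Calls rest on a combination of fold-change classes in drug and vehicle arms, not all shown here.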 Entries without a mark were called inactive.
gene symbol,cell gain with vemurafenib,lactate per cell with vemurafenib
USP14 (ubiquitin specific peptidase 14),0.2,1.98
DIMT1 (DIM1 rRNA methyltransferase and ribosome maturation factor),0.65,1.01
HINFP (histone H4 transcription factor),0.66,1.04
SPRR1B (small proline rich protein 1B),0.17,2.38
PSME2 (proteasome activator subunit 2),0.13,1.63
TSPAN33 (tetraspanin 33),0.78,0.93
LCN6 (lipocalin 6),0.61,0.66
RIMS4 (regulating synaptic membrane exocytosis 4),0.27,1.93
NENF (neudesin neurotrophic factor),0.56,1.17
RGS9 (regulator of G protein signaling 9),0.63,1.53
TMEM47 (transmembrane protein 47),0.5,1.11
DAO (D-amino acid oxidase),0.47,0.86
BARX2 (BARX homeobox 2),0.39,1.58
"SEC22C (SEC22 homolog C, vesicle trafficking protein)",0.82,0.97
EFCAB6 (EF-hand calcium binding domain 6),0.8,1.25
CHMP4B (charged multivesicular body protein 4B),1.44,1.33
CCNC (cyclin C),0.54,1.37
CRY1 (cryptochrome circadian regulator 1),0.47,0.26
TRAF3IP3 (TRAF3 interacting protein 3),0.58,0.68
ADM2 (adrenomedullin 2),0.82,0.9
IL17D (interleukin 17D),0.32,1.29
WDR36 (WD repeat domain 36),0.72,0.83
ANO1 (anoctamin 1),0.52,1.33
VN1R1 (vomeronasal 1 receptor 1),-0.09,2.7
DIP2A (DIP2 acetate--CoA ligase A),0.76,0.71
KLHL31 (kelch like family member 31),0.87,0.63
SSTR1 (somatostatin receptor 1),0.24,1.02
POLR1E (RNA polymerase I subunit E),0.7 (active),0.63
ETFB (electron transfer flavoprotein subunit beta),0.59,0.59
LETM2,1.01,0.88
ECT2 (epithelial cell transforming 2),0.17,1.98
CMA1 (chymase 1),0.29 (active),0.3
SPO11 (SPO11 initiator of meiotic double strand breaks),1.09,0.46
CALHM5 (calcium homeostasis modulator family member 5),0.68,0.86
SRY (sex determining region Y),0.84,0.64
SIRT1 (sirtuin 1),0.82,0.97
IMPACT (impact RWD domain protein),0.42,0.68
OR2B11 (olfactory receptor family 2 subfamily B member 11),-0.08,0.68
"RAB33A (RAB33A, member RAS oncogene family)",0.2,0.28
DKK4 (dickkopf Wnt signaling pathway inhibitor 4),0.71,1.16
COXFA4L3 (cytochrome c oxidase associated subunit FA4L3),-0.02,0.74
CCNY (cyclin Y),0.63,1
FAR2 (fatty acyl-CoA reductase 2),0.53,0.82
TUBA1B (tubulin alpha 1b),-0.13,3.27
DEFB1 (defensin beta 1),0.32,1.07
DARS1 (aspartyl-tRNA synthetase 1),0.45,1.46
TM4SF20 (transmembrane 4 L six family member 20),0.43 (active),0.17
XKR4 (XK related 4),0.5,0.8
TERT (telomerase reverse transcriptase),0.73,0.72
ANKRD27 (ankyrin repeat domain 27),0.56,0.64
KCNC4 (potassium voltage-gated channel subfamily C member 4),0.43,1.04
DYNLL2 (dynein light chain LC8-type 2),0.74,0.7
MFSD1 (major facilitator superfamily domain containing 1),0.9,1.14
CCDC174 (coiled-coil domain containing 174),0.76,0.78
C16orf89 (chromosome 16 open reading frame 89),0.65,0.87
YBX3 (Y-box binding protein 3),0.19,1.16
ANO4 (anoctamin 4),0.9,0.5
GCNA (germ cell nuclear acidic peptidase),-0.03,1.19
ANKRD28 (ankyrin repeat domain 28),0.79,0.83
ZCCHC17 (zinc finger CCHC-type containing 17),0.97,0.41
DERA (deoxyribose-phosphate aldolase),0.38,0.91
PTCD1 (pentatricopeptide repeat domain 1),1.29,0.56
SLC25A41,-0.19,1.57
"FAM86C1P (family with sequence similarity 86 member C1, pseudogene)",0.21,2.09
CEP135 (centrosomal protein 135),0.41,0.92
CTTNBP2 (cortactin binding protein 2),0.55,0.82
ATP6V1D (ATPase H+ transporting V1 subunit D),0.74,0.36
RPL41 (ribosomal protein L41),0.99,0.64
DNAJC16 (DnaJ heat shock protein family (Hsp40) member C16),1.06,0.78
PARD6G (par-6 family cell polarity regulator gamma),0.54,0.87
MAGEB10 (MAGE family member B10),0.29,0.48
SLC25A21,0.55 (active),0.32
GSTK1 (glutathione S-transferase kappa 1),0.61,1.2
MRPL17 (mitochondrial ribosomal protein L17),0.69,0.5
SLC2A1,0.83,0.7
KIF1A (kinesin family member 1A),0.39,1.62
XPR1 (xenotropic and polytropic retrovirus receptor 1),1.18,1.02
PRR16 (proline rich 16),0.46,0.98
DSC3 (desmocollin 3),0.29,1.21
PRPF6 (pre-mRNA processing factor 6),0.14,1.86
ATP2C1 (ATPase secretory pathway Ca2+ transporting 1),0.62 (active),0.19
"DARS2 (aspartyl-tRNA synthetase 2, mitochondrial)",0.99,0.55
ADARB2 (adenosine deaminase RNA specific B2 (inactive)),0.83,1.23
PTCHD4 (patched domain containing 4),-0.01,3.39
"ELANE (elastase, neutrophil expressed)",0.41,1.39
HVCN1 (hydrogen voltage gated channel 1),0.48,0.96
CLSTN1 (calsyntenin 1),0.1,2.63
SESTD1 (SEC14 and spectrin domain containing 1),0.45,1.01
TMEM9 (transmembrane protein 9),1.34,0.7
IQUB (IQ motif and ubiquitin domain containing),0.75,1.01
PPEF1 (protein phosphatase with EF-hand domain 1),0.66,0.63
EIF3E (eukaryotic translation initiation factor 3 subunit E),0.13,1.09
SCN10A (sodium voltage-gated channel alpha subunit 10),0.53,1.11
BRD8 (bromodomain containing 8),0.6,0.32
LPAR5 (lysophosphatidic acid receptor 5),0.07,1.73
RPS6KA2 (ribosomal protein S6 kinase A2),-0.07,1.36
TRDMT1 (tRNA aspartic acid methyltransferase 1),0.72,0.61
IGSF1 (immunoglobulin superfamily member 1),0.98,0.55
RNPEPL1 (arginyl aminopeptidase like 1),0.58,0.87
ME1 (malic enzyme 1),1.1,0.71
TMEM147 (transmembrane protein 147),0.51,0.72
YIPF2 (Yip1 domain family member 2),0.87,1.03
PCOLCE2 (procollagen C-endopeptidase enhancer 2),0.07,1.94
KDM5D (lysine demethylase 5D),0.96,0.86
COX4I2 (cytochrome c oxidase subunit 4I2),0.35,0.88
MED6 (mediator complex subunit 6),0.18,0.76
L1CAM (L1 cell adhesion molecule),0.4,2.6
